PubChem BioAssay AID1259308, NCATS, 2017
Here is an unselected part of about 59,000 reagents tested. About 1,510 of all reagents (2.6%) were called active. 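Calls use total luciferase alone and ignore viability, so some active siRNAs may act by altering cell number.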 Reagents against one gene are numbered here. Not all columns of the deposit are shown.

Screen: 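Knock-downs that increase output of a recombinant reporter protein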 (primary screen)
Cell system: human HEK293 embryonic kidney cells stably expressing firefly luciferase (HEK-CMV-Luc2-Hygro)
Knock-down reagent: single siRNA against human genes, 0.8 pmol siRNA per well
Time to read-out: 72 h
Detection: 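Luciferase light (ONE-Glo) measured on one replicate plate set and viability (CellTiter-Glo) on the other, scaled to a negative control siRNA, with robust z-scores and luciferase per cell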
Reading the numbers: total luciferase, z-score and total luciferase, % of control: higher = more reporter protein produced; luciferase per cell, z-score: higher = more reporter output per viable cell
Rule for the call: 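An siRNA counts as active if its total luciferase robust z-score exceeds 3; genes with two or more such siRNAs out of three were retested with fresh siRNAs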
Calls: active = raised luciferase; inactive = no rise

| Target gene | reagent no. | total luciferase, z-score | total luciferase, % of control | luciferase per cell, z-score | outcome |
| --- | --- | --- | --- | --- | --- |
| CCDC146 | 1 | -0.38 | 74.3 | -0.649 | inactive |
| CCDC146 | 2 | 0.0608 | 83.1 | -0.322 | inactive |
| CCDC146 | 3 | -0.372 | 74.5 | -1.26 | inactive |
| TMEM203 | 1 | 1.51 | 112 | 1.49 | inactive |
| TMEM203 | 2 | 0.62 | 94.2 | 0.906 | inactive |
| TMEM203 | 3 | 0.228 | 86.4 | 0.35 | inactive |
| WASL | 1 | -1.48 | 52.5 | -1.61 | inactive |
| WASL | 2 | 0.627 | 94.4 | -0.243 | inactive |
| WASL | 3 | 0.706 | 95.9 | 0.317 | inactive |
| ZMPSTE24 | 1 | -1.35 | 55.1 | -0.808 | inactive |
| ZMPSTE24 | 2 | -0.057 | 80.8 | -0.704 | inactive |
| ZMPSTE24 | 3 | 0.92 | 100 | 0.00424 | inactive |
| RNFT1 | 1 | 0.981 | 101 | 1.65 | inactive |
| RNFT1 | 2 | -0.354 | 74.8 | -0.818 | inactive |
| RNFT1 | 3 | 2.15 | 125 | 1.33 | inactive |
| LGALS2 | 1 | -0.174 | 78.4 | -0.56 | inactive |
| LGALS2 | 2 | -0.7 | 68 | -0.731 | inactive |
| LGALS2 | 3 | -2.77 | 26.8 | -0.459 | inactive |
| HYKK | 1 | -0.596 | 70 | -0.516 | inactive |
| HYKK | 2 | -1.5 | 52 | -1.53 | inactive |
| HYKK | 3 | -0.308 | 75.8 | -0.977 | inactive |

Laid out differently: results already given
Target gene,reagent no.,"total luciferase, z-score","total luciferase, % of control","luciferase per cell, z-score",outcome
RNFT1,2,-0.354,74.8,-0.818,inactive
RNFT1,3,2.15,125,1.33,inactive
LGALS2,1,-0.174,78.4,-0.56,inactive
LGALS2,2,-0.7,68,-0.731,inactive
LGALS2,3,-2.77,26.8,-0.459,inactive

Next results follow:
| Target gene | reagent no. | total luciferase, z-score | total luciferase, % of control | luciferase per cell, z-score | outcome |
| --- | --- | --- | --- | --- | --- |
| NYX | 1 | 0.527 | 92.4 | 0.511 | inactive |
| NYX | 2 | -0.000308 | 81.9 | -0.84 | inactive |
| NYX | 3 | 0.16 | 85.1 | -0.308 | inactive |
| HOXD4 | 1 | -1.51 | 51.8 | -0.0709 | inactive |
| HOXD4 | 2 | 1.8 | 118 | 0.776 | inactive |
| HOXD4 | 3 | 0.221 | 86.3 | -0.163 | inactive |
| CXCL10 | 1 | 0.301 | 87.9 | -0.374 | inactive |
| CXCL10 | 2 | 1.44 | 111 | 1.28 | inactive |
| CXCL10 | 3 | 1.75 | 117 | 1.71 | inactive |
| VWA5B2 | 1 | 3.12 | 144 | 2.49 | active |
| VWA5B2 | 2 | 0.97 | 101 | 0.526 | inactive |
| VWA5B2 | 3 | 0.645 | 94.7 | 0.906 | inactive |
| TFB2M | 1 | -0.166 | 78.6 | -0.717 | inactive |
| TFB2M | 2 | -0.596 | 70 | -0.993 | inactive |
| TFB2M | 3 | 1.9 | 120 | 1.41 | inactive |
| PLA2G7 | 1 | 0.869 | 99.2 | 1.26 | inactive |
| PLA2G7 | 2 | 0.538 | 92.6 | 0.3 | inactive |
| PLA2G7 | 3 | -0.7 | 68 | -1.09 | inactive |
| URGCP | 1 | -1.22 | 57.7 | -0.33 | inactive |
| URGCP | 2 | 0.318 | 88.2 | 0.0944 | inactive |
| URGCP | 3 | 3.66 | 155 | 4.17 | active |
| PNMT | 1 | 0.409 | 90 | -0.217 | inactive |
| PNMT | 2 | 2.34 | 128 | 2.11 | inactive |
| PNMT | 3 | 0.131 | 84.5 | 0.78 | inactive |
| LRRC23 | 1 | -0.601 | 69.9 | -0.272 | inactive |
| LRRC23 | 2 | -0.406 | 73.8 | -0.342 | inactive |
| LRRC23 | 3 | 0.886 | 99.5 | -0.406 | inactive |
| TFDP1P2 | 1 | 0.538 | 92.6 | 0.898 | inactive |
| TFDP1P2 | 2 | -2.07 | 40.7 | -2.56 | inactive |
| TFDP1P2 | 3 | -0.847 | 65 | -0.858 | inactive |
| USP17L9P | 1 | 0.774 | 97.3 | 0.313 | inactive |
| USP17L9P | 2 | 3.13 | 144 | 2.22 | active |
| USP17L9P | 3 | -0.107 | 79.8 | -1.03 | inactive |
| HSPA13 | 1 | -1.23 | 57.4 | -0.0655 | inactive |
| HSPA13 | 2 | 0.213 | 86.1 | 0.442 | inactive |
| HSPA13 | 3 | 0.437 | 90.6 | 0.632 | inactive |
